Results published in PubChem BioAssay AID1671190 (National Center for Advancing Translational Sciences (NCATS), 2021).
Values joined by “and” are separate entries in the source; they are usually repeats but may differ in a detail not shown here. Equal entries are not always repeated. About 6,100 (1.1%) of roughly 580,000 compounds were called active. This list was built around the results that the source calls inconclusive (neither active nor inactive); the mix of calls is not that of the screen. Calls come from the whole dose curve; as a rule, active = well fitted inhibition curve with a large enough effect; inconclusive = small, poorly fitted or top-dose-only effect, or another doubt; inactive = no such curve, though single readings can be large or run the other way. Potencies beside an inconclusive call are fits to weak or partial responses and may not hold up.

By UniProt entry, the sequences of proteins in these tests, tags left out. Where a name states a change or a piece, a line headed by the entry shows the natural chain unless it says otherwise.
UniProt P18054: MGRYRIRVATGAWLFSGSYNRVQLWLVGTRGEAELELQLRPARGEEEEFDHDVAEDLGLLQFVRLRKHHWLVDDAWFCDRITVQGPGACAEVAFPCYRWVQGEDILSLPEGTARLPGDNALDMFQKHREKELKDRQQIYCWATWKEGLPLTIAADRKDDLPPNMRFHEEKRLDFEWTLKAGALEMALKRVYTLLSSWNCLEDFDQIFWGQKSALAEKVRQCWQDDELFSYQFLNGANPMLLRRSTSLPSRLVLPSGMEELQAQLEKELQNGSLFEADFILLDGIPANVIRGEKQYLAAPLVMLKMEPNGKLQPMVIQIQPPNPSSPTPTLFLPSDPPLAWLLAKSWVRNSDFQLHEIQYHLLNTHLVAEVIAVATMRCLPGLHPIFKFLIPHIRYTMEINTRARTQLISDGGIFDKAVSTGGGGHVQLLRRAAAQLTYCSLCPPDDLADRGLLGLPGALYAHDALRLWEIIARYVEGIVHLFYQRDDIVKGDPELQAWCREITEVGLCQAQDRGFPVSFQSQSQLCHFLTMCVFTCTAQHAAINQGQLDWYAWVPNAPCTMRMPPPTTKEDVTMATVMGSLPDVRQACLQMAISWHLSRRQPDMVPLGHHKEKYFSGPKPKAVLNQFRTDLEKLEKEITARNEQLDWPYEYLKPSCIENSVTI

molecular target: Polyunsaturated fatty acid lipoxygenase ALOX12 (Homo sapiens) (UniProt P18054); assay: Primary qHTS assay for inhibitors of human arachidonate 12S-lipoxygenase (ALOX12): Round 2; details: purified 12hLO, xylenol orange hydroperoxide absorbance; activity change, negative = inhibition: at 108 µM (top of the series) unless noted
In short: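 Purified human 12hLO (150 nM final) in 25 mM Hepes, 0.01% Triton X-100, pH 7.0 was preincubated 15 min at room temperature with compound. Then 40 uM arachidonic acid was added, 30 min. Hydroperoxide was read by Fe-XO absorbance ratio 573/405 nm.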
% is set by controls: 0 for no effect and ±100 for the full control effect; potency is the fitted concentration of half-maximal effect.

| SMILES | activity change, negative = inhibition | Potency |
| --- | --- | --- |
| CSc1ccccc1OCc1cc(C(=O)N2CCN(C3CCCC3)C(=O)C2)no1 | inactive: -3.91% | – |
| COc1cccc(C2CCCN2Cc2cc(=O)oc3c(C)c(O)ccc23)c1 (centres undefined) | – | inconclusive: 25.1 µM [inhibitor, partial curve, poor fit] |
| Cc1c(Cl)cccc1NC(=O)CN1C(=O)COc2ccc(S(=O)(=O)N3CCOCC3)cc21 | – | inconclusive: 20 µM [inhibitor, full curve, poor fit] |
| COC(=O)C1=C(C)N(Cc2ccccc2C(F)(F)F)C(=NCc2ccc(OC)cc2)NC1c1ccc(F)cc1 (centres undefined) | – | inconclusive: 79.4 µM [inhibitor, partial curve, poor fit] |
| O=C(Cc1c[nH]c2ccccc12)NC1CCCc2c1[nH]c1ccc(F)cc21 (centres undefined) | – | inconclusive: 15.8 µM [inhibitor, full curve] |
| CC(=O)Nc1ccc(SC(C)C(=O)c2ccc3c(c2)NC(=O)CO3)cc1 (centres undefined) | – | inconclusive: 31.6 µM [inhibitor, partial curve, poor fit] |
| C(=N\c1nccs1)/c1c[nH]c2ccccc12 | – | inconclusive: 50.1 µM [inhibitor, partial curve, poor fit] |
| COc1ccc(N2CC3CCC(C2)N3Cc2cccc(-c3cccnc3)c2)cc1 | inactive: 8.69% [at 6.33 µM] | – |
| Cc1ccc(-c2cc(C(=O)Nc3ccc(C(N)=O)cc3)c3ccccc3n2)o1 | – | active: 7.94 µM |
| CCc1nc2c(OCc3ccc(F)c(F)c3)cccn2c1N(C)C(=O)c1ccc(C)cc1 | – | inconclusive: 79.4 µM [inhibitor, partial curve, poor fit] |
| CC1CCCN(CCOCCOc2ccc(Br)cc2Cl)C1 (centres undefined) | – | inconclusive: 1.78 µM [inhibitor, full curve, poor fit] |
| Cc1ccc2cc(C(=O)NCCN(C(C)C)C(C)C)[nH]c2c1 | inactive: -29.7% | – |
| COC[C@H]1C[C@@H](NC(=O)Nc2cccnc2)[C@H](O)[C@@H]1O | – | inconclusive: 15.8 µM [inhibitor, partial curve] |
| COC(=O)C1=C(C)OC(N)=C(C#N)C1c1ccc(C(C)C)cc1 (centres undefined) | – | inconclusive: 12.6 µM [inhibitor, partial curve, poor fit] |
| CCOc1[nH]c(/N=C/c2ccco2)c(C#N)c1C#N | – | active: 17.8 µM |
| COc1ccc(CSC(=S)NNc2ccccc2)cc1 | – | active: 22.4 µM |
| O=C(Nc1ccccc1C(=O)Nc1ccccn1)c1ccccc1F | – | inconclusive: 158 µM [inhibitor, partial curve, poor fit] |
| COc1ccc(C(=O)N2CCC(N3CCCCCC3)CC2)cc1 | – | inconclusive: 0.631 µM [inhibitor, full curve, poor fit] |
| CCc1ccc(NC(=O)Cn2ccn3nc4c(c3c2=O)CC(C)CC4)cc1 (centres undefined) | – | inconclusive: 35.5 µM [inhibitor, partial curve] |
| O=C1[C@H]2[C@@H](c3ccc(C(F)(F)F)cc3)N[C@]3(CCCN(Cc4ccc(C(F)(F)F)cc4)C3=O)[C@H]2C(=O)N1Cc1ccccc1 | – | inconclusive: 8.91 µM [inhibitor, full curve, poor fit] |
| CCOC(=O)c1ccc([N+](=O)[O-])cc1NC(C)=O | inactive: -9.96% | – |
| N#CCCn1c(SCC(=O)Nc2ccc(-c3ccccc3)cc2)nc2ccccc21 | – | inconclusive: 56.2 µM [inhibitor, full curve, poor fit] |

| SMILES | activity change, negative = inhibition | Potency |
| --- | --- | --- |
| Cc1ccc2nc(-c3ccccc3)cc(C(=O)Nc3cccnc3)c2c1 | – | inconclusive: 50.1 µM [inhibitor, single point] and inconclusive: 112 µM [inhibitor, single point] |
| CC(C)(C)NC(=O)C(c1cccc2ccccc12)n1c(=O)c(-c2ccco2)nc2ccccc21 (centres undefined) | – | active: 44.7 µM |
| Cc1nc(C)c(C(=O)OCC(=O)N2CCN(c3ccccc3)CC2)s1 | – | inconclusive: 56.2 µM [inhibitor, partial curve, poor fit] |
| COC(=O)c1nc2ccccc2nc1N1CCN(c2cc(C)ccc2C)CC1 | – | inconclusive: 126 µM [inhibitor, partial curve, poor fit] |
| COc1ccc(N2CCN(c3nc(C(=O)NCc4ccc(F)cc4F)cs3)CC2)cc1 | – | inconclusive: 39.8 µM [inhibitor, partial curve] |
| O=C(OCCOc1cccc(Cl)c1)c1cc(S(=O)(=O)N2CCCCC2)ccc1N1CCOCC1 | – | inconclusive: 141 µM [inhibitor, single point] |
| CCCCc1cc2cc(C(=O)Nc3ccc(C)cc3)ccc2nc1Cl | inactive: -4.44% | – |
| O=C(Cc1cc(=O)[nH][nH]1)N/N=C/c1cccc(Cl)c1Cl | – | inconclusive: 15.8 µM [inhibitor, full curve] |
| CCN(CC)CCNC(=O)C(C)c1n[nH]c(=O)c2ccccc12 (centres undefined) | – | inconclusive: 100 µM [inhibitor, single point] |
| COc1cccc(NC(=O)C2CCC(CNS(=O)(=O)c3cccs3)CC2)c1 (centres undefined) | – | inconclusive: 0.282 µM [inhibitor, full curve, poor fit] |
| Cc1cccc(Cn2c(=O)n(CC3CCC(C(=O)N4CCOCC4)CC3)c(=O)c3sccc32)c1 (centres undefined) | inactive: -16.3% | – |
| COCCNC(=S)NCc1ccc2[nH]c3c(c2c1)CCCC3 | – | inconclusive: 35.5 µM [inhibitor, partial curve, poor fit] |
| CCn1c2ccccc2c2cc(/C=N/n3cnnc3)ccc21 | inactive: 0.376% | – |
| CC(C)(C)c1ccc(OCCCN2CCCC2)cc1 | – | inconclusive: 10 µM [inhibitor, full curve, poor fit] |
| Fc1cccc(C2NN=C(c3ccccc3)S2)c1 (centres undefined) | inactive: -12.2% | – |
| O=C(/C=C/c1cccc(Br)c1)N1CCN(c2cccc(C(F)(F)F)c2)CC1 | – | inconclusive: 56.2 µM [inhibitor, partial curve, poor fit] |
| Cc1csc(NC(=O)CSc2ncnc3ccccc23)n1 | inactive: 6.97% | – |
| Cc1nc2ccccn2c1/C(O)=C1\C(=O)C(=O)N(CCN2CCOCC2)C1c1cccs1 (centres undefined) | – | inconclusive: 7.94 µM [inhibitor, full curve, poor fit] |
| O=c1[nH]c(CSc2nnc(N3CCCCC3)n2-c2ccccc2)nc2cc(Cl)ccc12 | – | inconclusive: 126 µM [inhibitor, partial curve, poor fit] |
| Cc1n[nH]c(C)c1C(C)N (centres undefined) | – | inconclusive: 25.1 µM [inhibitor, full curve, poor fit] |
| FC(F)(F)c1cccc(Cc2noc(CN3CCCC(OCc4ccccn4)C3)n2)c1 (centres undefined) | – | inconclusive: 11.2 µM [inhibitor, full curve, poor fit] |
| CCc1nc2oc3ccccc3c(=O)c2c(=O)n1-c1ccccc1 | – | inconclusive: 10 µM [inhibitor, full curve, poor fit] |

One compound at a time, as listed above.
Cc1nc2ccccn2c1/C(O)=C1\C(=O)C(=O)N(CCN2CCOCC2)C1c1cccs1 (centres undefined) reads Potency: inconclusive: 7.94 µM [inhibitor, full curve, poor fit]
Cc1nc(C)c(C(=O)OCC(=O)N2CCN(c3ccccc3)CC2)s1 reads Potency: inconclusive: 56.2 µM [inhibitor, partial curve, poor fit]
Cc1csc(NC(=O)CSc2ncnc3ccccc23)n1 reads activity change, negative = inhibition: inactive: 6.97%
CCCCc1cc2cc(C(=O)Nc3ccc(C)cc3)ccc2nc1Cl reads activity change, negative = inhibition: inactive: -4.44%

Next compounds follow:

| SMILES | activity change, negative = inhibition | Potency |
| --- | --- | --- |
| COc1cc(OC)c(OC)cc1/C=C1\Oc2cc(OC(=O)C(C)(C)C)ccc2C1=O | – | inconclusive: 17.8 µM [inhibitor, single point] |
| Cn1c(C(=O)NC2CCN(C3CC3)C2)cc2ccccc21 (centres undefined) | – | inconclusive: 141 µM [inhibitor, partial curve, poor fit] |
| CCC(C(=O)NC12CC3CC(CC(C3)C1)C2)c1ccccc1 (centres undefined) | – | inconclusive: 0.0355 µM [inhibitor, full curve, poor fit] |
| CC(C)C(C)NC(=O)COC(=O)c1ccc2c(c1)NC(=O)CS2 (centres undefined) | inactive: -22.9% | – |
| CCOC(=O)c1c(NC(=O)c2cc3nc(-c4ccc(OC)cc4)cc(C(F)(F)F)n3n2)sc2c1CCC(C)C2 (centres undefined) | – | inconclusive: 126 µM [inhibitor, partial curve, poor fit] |
| Cn1cnc([N+](=O)[O-])c1Sc1nc(N)nc2c1ncn2C1OC(CO)C(O)C1O (centres undefined) | – | inconclusive: 50.1 µM [inhibitor, partial curve, poor fit] |
| O=c1c(-c2cccs2)nc2cnc(N3CCNCC3)nc2n1Cc1cccs1 | – | inconclusive: 1.78 µM [inhibitor, full curve, poor fit] |
| OCCCNC(=S)Nc1ccc(Cl)cc1 | – | active: 50.1 µM |
| Cc1ccc(C2=CC(c3ccccc3F)n3c(nc4ccccc43)N2)cc1C (centres undefined) | – | inconclusive: 79.4 µM [inhibitor, partial curve, poor fit] |
| COc1ccc(C(=O)N2CCN3C(=O)N(C4CCOCC4)C[C@H]3C2)cc1 | – | inconclusive: 56.2 µM [inhibitor, full curve] |
| CCCCn1nc(C(=O)OCC(=O)Nc2sccc2C(N)=O)c2ccccc2c1=O | – | inconclusive: 89.1 µM [inhibitor, single point] |
| CCCOc1ccc(CSCCNC(=S)Nc2ccccc2)cc1 | – | inconclusive: 50.1 µM [inhibitor, partial curve, poor fit] |
| c1coc(-c2nc3c4ccccc4ccn3c2Cc2ccsc2)c1 | – | inconclusive: 3.55 µM [inhibitor, full curve, poor fit] |
| CCOc1ccc2c(c1)cc(C(=O)NCCOc1ccc(Cl)cc1)n2C | inactive: 104% | – |
| CSc1ccccc1NCC(=O)N1CCNC1=O | – | inconclusive: 44.7 µM [inhibitor, partial curve] |
| CCCCNc1ccc2c(c1)OC[C@@H](CC(C)C)NS2(=O)=O | – | inconclusive: 50.1 µM [inhibitor, partial curve, poor fit] |
| CC(N)=O | inactive: -8.14% | – |
| COc1cc2c(cc1CC=C(C)C)C(=O)C[C@@H](c1ccc(O)cc1)O2 | – | inconclusive: 112 µM [inhibitor, single point] |
| COc1cccc(CNS(=O)(=O)c2cc(Br)ccc2Br)c1 | – | inconclusive: 112 µM [inhibitor, single point] |
| O=C(/C=C/Nc1ccc(Cl)cc1C(F)(F)F)c1ccc(Br)cc1 | – | inconclusive: 56.2 µM [inhibitor, partial curve, poor fit] |
